In paper PMC12288466, “EzrA promotes Z-ring formation through interaction of its QNR motif with FtsA” (Journal of Bacteriology, 2025):
These are yes or no findings as the source states them, for the method shown. In cells and extracts the contact can be indirect. A yes stands for co-enrichment or nearness to the bait. Other partners may have been found.

Amino acid sequences for entries named in this document (tags omitted).
UniProt A0A0H3MTL7: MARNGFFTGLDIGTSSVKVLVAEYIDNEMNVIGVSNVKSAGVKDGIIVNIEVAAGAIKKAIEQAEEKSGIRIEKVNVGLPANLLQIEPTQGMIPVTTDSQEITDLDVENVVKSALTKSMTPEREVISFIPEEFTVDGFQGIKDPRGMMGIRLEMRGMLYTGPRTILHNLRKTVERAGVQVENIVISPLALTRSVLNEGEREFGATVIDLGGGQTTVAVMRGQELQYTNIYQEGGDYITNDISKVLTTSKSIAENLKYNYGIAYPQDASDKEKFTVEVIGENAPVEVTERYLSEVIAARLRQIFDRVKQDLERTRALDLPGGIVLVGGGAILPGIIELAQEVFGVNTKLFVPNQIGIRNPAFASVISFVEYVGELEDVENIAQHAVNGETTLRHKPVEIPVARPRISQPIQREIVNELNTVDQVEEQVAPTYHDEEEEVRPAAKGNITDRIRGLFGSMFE
UniProt A0A0H3MXZ7: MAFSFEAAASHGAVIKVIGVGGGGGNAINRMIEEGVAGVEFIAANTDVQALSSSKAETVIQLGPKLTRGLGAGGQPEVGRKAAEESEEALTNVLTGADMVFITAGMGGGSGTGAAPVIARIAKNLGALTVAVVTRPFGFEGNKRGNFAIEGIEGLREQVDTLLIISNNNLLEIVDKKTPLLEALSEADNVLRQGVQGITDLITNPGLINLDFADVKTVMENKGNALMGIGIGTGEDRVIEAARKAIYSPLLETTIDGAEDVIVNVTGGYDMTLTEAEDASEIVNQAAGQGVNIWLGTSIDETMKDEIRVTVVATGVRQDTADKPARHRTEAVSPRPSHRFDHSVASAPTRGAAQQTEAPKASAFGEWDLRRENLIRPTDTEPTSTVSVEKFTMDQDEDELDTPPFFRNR

B1: SepF (protein, UniProt A4VTL1 1-187)
chain: MALKDTFKNLFNYFEVDEVNEVEEQADAYSMPNDRPKMRVANTTVAPVREQQPKVETRREARSESQLQRLHERQQELMTNNNEKEIVKTTIDIKFPKRYEDAPEMVNLLLDNASILIDFQYMSEQQARRCLDYLDGARSVLSGNLKKVSNTMWLLTPVNVTVNIEELRNAGTTTGVADSNFEFDIKR

Legend:
[1] = molecular target: EzrA-3×FLAG (Streptococcus suis (strain SC19)) (UniProt A4VWI6); experiment: affinity purification with mass spectrometry; FLAG magnetic agarose on S. suis lysates (0.1 M Tris-HCl pH 7.5, 150 mM NaCl, 1% Triton X-100), 20 min at room temperature, without cross-linking; label-free quantification (MaxLFQ)
[2] = molecular target: EzrA^R514D-3×FLAG (Streptococcus suis (strain SC19)); experiment: as above

| Molecule | binding [1] | binding [2] |
| --- | --- | --- |
| FtsA (from UniProt A0A0H3MTL7 1-459) | binds | – |
| FtsZ (from UniProt A0A0H3MXZ7 1-409) | binds | – |
| B1 | binds | binds |
